Measured values published in the supplement of paper PMC8728848.
Some of the results follow.

Assays:
Experiment in all cases: glycan array binding signal (z-score within array); higher = stronger binding
Conditions in all cases: glycan notation: IUPAC condensed, linker removed
[1] = molecular target: Gal(b1-3)[Fuc(a1-4)]GlcNAc(b1-6)GalNAc
How it was run: (§1)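 Arrays were curated from the Consortium for Functional Glycomics database, 3228 in total, and kept only where the protein sequence was available. Binding is expressed as a within-array Z-score. This score was averaged across arrays of the same protein sequence at different concentrations or buffers and across linkers, and negative values can be read as non-binding.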

[2] = molecular target: Gal(b1-3)[GlcNAc(b1-6)]GalNAc
How it was run: as §1

[3] = molecular target: Gal(b1-3)[Neu5Ac(a2-6)]GalNAc
How it was run: as §1

[4] = molecular target: Gal(b1-3)[Neu5Ac(a2-6)]GlcNAc(b1-4)Gal(b1-4)Glc
How it was run: as §1

[5] = molecular target: Gal(b1-3)[Neu5Ac(b2-6)]GalNAc
How it was run: as §1

Gal(b1-4)Gal = molecular target: Gal(b1-4)Gal
How it was run: as §1

[6] = molecular target: Gal(b1-4)GalNAc(a1-3)[Fuc(a1-2)]Gal(b1-4)GlcNAc
How it was run: as §1

[7] = molecular target: Gal(b1-4)GalNAc(b1-3)[Fuc(a1-2)]Gal(b1-4)GlcNAc
How it was run: as §1

Gal(b1-4)Glc = molecular target: Gal(b1-4)Glc
How it was run: as §1

Gal(b1-4)Glc6S = molecular target: Gal(b1-4)Glc6S
How it was run: as §1

Gal(b1-4)GlcNAc = molecular target: Gal(b1-4)GlcNAc
How it was run: as §1

[8] = molecular target: Gal(b1-4)GlcNAc(a1-6)Gal(b1-4)GlcNAc
How it was run: as §1

Gal(b1-4)GlcNAc(b1-2)Man = molecular target: Gal(b1-4)GlcNAc(b1-2)Man
How it was run: as §1

[9] = molecular target: Gal(b1-4)GlcNAc(b1-2)Man(a1-3)Man(b1-4)GlcNAc(b1-4)GlcNAc
How it was run: as §1

[10] = molecular target: Gal(b1-4)GlcNAc(b1-2)Man(a1-3)[Gal(b1-4)GlcNAc(b1-2)Man(a1-6)]Man(b1-4)GlcNAc(b1-4)GlcNAc
How it was run: as §1

[11] = molecular target: Gal(b1-4)GlcNAc(b1-2)Man(a1-3)[Gal(b1-4)GlcNAc(b1-2)Man(a1-6)]Man(b1-4)GlcNAc(b1-4)[Fuc(a1-6)]GlcNAc
How it was run: as §1

[12] = molecular target: Gal(b1-4)GlcNAc(b1-2)Man(a1-3)[Gal(b1-4)GlcNAc(b1-2)Man(a1-6)][Gal(b1-4)GlcNAc(b1-4)]Man(b1-4)GlcNAc(b1-4)[Fuc(a1-6)]GlcNAc
How it was run: as §1

[13] = molecular target: Gal(b1-4)GlcNAc(b1-2)Man(a1-3)[Gal(b1-4)GlcNAc(b1-2)Man(a1-6)][GlcNAc(b1-4)]Man(b1-4)GlcNAc(b1-4)[Fuc(a1-6)]GlcNAc
How it was run: as §1

[14] = molecular target: Gal(b1-4)GlcNAc(b1-2)Man(a1-3)[GlcNAc(b1-2)Man(a1-6)]Man(b1-4)GlcNAc(b1-4)GlcNAc
How it was run: as §1

[15] = molecular target: Gal(b1-4)GlcNAc(b1-2)Man(a1-3)[GlcNAc(b1-4)][Gal(b1-4)GlcNAc(b1-2)Man(a1-6)]Man(b1-4)GlcNAc(b1-4)GlcNAc
How it was run: as §1

[16] = molecular target: Gal(b1-4)GlcNAc(b1-2)Man(a1-3)[Man(a1-6)]Man(b1-4)GlcNAc(b1-4)GlcNAc
How it was run: as §1

[17] = molecular target: Gal(b1-4)GlcNAc(b1-2)Man(a1-6)Man(b1-4)GlcNAc(b1-4)GlcNAc
How it was run: as §1

[18] = molecular target: Gal(b1-4)GlcNAc(b1-2)Man(a1-6)[GlcNAc(b1-2)Man(a1-3)]Man(b1-4)GlcNAc(b1-4)GlcNAc
How it was run: as §1

[19] = molecular target: Gal(b1-4)GlcNAc(b1-2)Man(a1-6)[Man(a1-3)]Man(b1-4)GlcNAc(b1-4)GlcNAc
How it was run: as §1

[20] = molecular target: Gal(b1-4)GlcNAc(b1-2)[Gal(b1-4)GlcNAc(b1-4)]Man(a1-3)[Gal(b1-4)GlcNAc(b1-2)Man(a1-6)]Man(b1-4)GlcNAc(b1-4)GlcNAc
How it was run: as §1

[21] = molecular target: Gal(b1-4)GlcNAc(b1-2)[Gal(b1-4)GlcNAc(b1-4)]Man(a1-3)[Gal(b1-4)GlcNAc(b1-2)[Gal(b1-4)GlcNAc(b1-6)]Man(a1-6)]Man(b1-4)GlcNAc(b1-4)GlcNAc
How it was run: as §1

[22] = molecular target: Gal(b1-4)GlcNAc(b1-2)[Gal(b1-4)GlcNAc(b1-4)]Man(a1-3)[GlcNAc(b1-4)][Gal(b1-4)GlcNAc(b1-2)Man(a1-6)]Man(b1-4)GlcNAc(b1-4)GlcNAc
How it was run: as §1

[23] = molecular target: Gal(b1-4)GlcNAc(b1-2)[Gal(b1-4)GlcNAc(b1-4)]Man(a1-3)[GlcNAc(b1-4)][Gal(b1-4)GlcNAc(b1-2)[Gal(b1-4)GlcNAc(b1-6)]Man(a1-6)]Man(b1-4)GlcNAc(b1-4)GlcNAc
How it was run: as §1

[24] = molecular target: Gal(b1-4)GlcNAc(b1-2)[Gal(b1-4)GlcNAc(b1-6)]Man(a1-6)[Gal(b1-4)GlcNAc(b1-2)Man(a1-3)]Man(b1-4)GlcNAc(b1-4)GlcNAc
How it was run: as §1

[25] = molecular target: Gal(b1-4)GlcNAc(b1-2)[Gal(b1-4)GlcNAc(b1-6)]Man(a1-6)[Gal(b1-4)GlcNAc(b1-2)Man(a1-3)]Man(b1-4)GlcNAc(b1-4)[Fuc(a1-6)]GlcNAc
How it was run: as §1

[26] = molecular target: Gal(b1-4)GlcNAc(b1-2)[Gal(b1-4)GlcNAc(b1-6)]Man(a1-6)[GlcNAc(b1-4)][Gal(b1-4)GlcNAc(b1-2)Man(a1-3)]Man(b1-4)GlcNAc(b1-4)GlcNAc
How it was run: as §1

[27] = molecular target: Gal(b1-4)GlcNAc(b1-2)[Gal(b1-4)GlcNAc(b1-6)]Man(a1-6)[GlcNAc(b1-4)][Gal(b1-4)GlcNAc(b1-2)[Gal(b1-4)GlcNAc(b1-4)]Man(a1-3)]Man(b1-4)GlcNAc(b1-4)[Fuc(a1-6)]GlcNAc
How it was run: as §1

[28] = molecular target: Gal(b1-4)GlcNAc(b1-3)Gal(b1-3)GalNAc
How it was run: as §1

[29] = molecular target: Gal(b1-4)GlcNAc(b1-3)Gal(b1-3)GlcNAc
How it was run: as §1

[30] = molecular target: Gal(b1-4)GlcNAc(b1-3)Gal(b1-4)Glc
How it was run: as §1

[31] = molecular target: Gal(b1-4)GlcNAc(b1-3)Gal(b1-4)GlcNAc
How it was run: as §1

[32] = molecular target: Gal(b1-4)GlcNAc(b1-3)Gal(b1-4)GlcNAc(b1-2)Man(a1-3)[Gal(b1-4)GlcNAc(b1-3)Gal(b1-4)GlcNAc(b1-2)Man(a1-6)]Man(b1-4)GlcNAc(b1-4)GlcNAc
How it was run: as §1

[33] = molecular target: Gal(b1-4)GlcNAc(b1-3)Gal(b1-4)GlcNAc(b1-2)Man(a1-3)[Gal(b1-4)GlcNAc(b1-3)Gal(b1-4)GlcNAc(b1-2)Man(a1-6)]Man(b1-4)GlcNAc(b1-4)[Fuc(a1-6)]GlcNAc
How it was run: as §1

B1: Clec18Av1 (Homo sapiens), A5D8T8 (protein)
chain: MLHPETSPGRGHLLAVLLALLGTAWAEVWPPQLQEQAPMAGALNRKESFLLLSLHNRLRSWVQPPAADMRRLDWSDSLAQLAQARAALCGTPTPSLASGLWRTLQVGWNMQLLPAGLVSFVEVVSLWFAEGQRYSHAAGECARNATCTHYTQLVWATSSQLGCGRHLCSAGQAAIEAFVCAYSPRGNWEVNGKTIVPYKKGAWCSLCTASVSGCFKAWDHAGGLCEVPRNPCRMSCQNHGRLNISTCHCHCPPGYTGRYCQVRCSLQCVHGRFREEECSCVCDIGYGGAQCATKVHFPFHTCDLRIDGDCFMVSSEADTYYRARMKCQRKGGVLAQIKSQKVQDILAFYLGRLETTNEVIDSDFETRNFWIGLTYKTAKDSFRWATGEHQAFTSFAFGQPDNHGFGNCVELQASAAFNWNDQRCKTRNRYICQFAQEHISRWGPGS
glycan array binding signal (z-score) [1]: 1.76 | glycan array binding signal (z-score) [2]: 1.01 | glycan array binding signal (z-score) [3]: 0.774 | glycan array binding signal (z-score) [4]: -0.523 | glycan array binding signal (z-score) [5]: -0.431 | glycan array binding signal (z-score) (Gal(b1-4)Gal): -0.594 | glycan array binding signal (z-score) [6]: -0.265 | glycan array binding signal (z-score) [7]: 0.677 | glycan array binding signal (z-score) (Gal(b1-4)Glc): 0.155 | glycan array binding signal (z-score) (Gal(b1-4)Glc6S): 0.74 | glycan array binding signal (z-score) (Gal(b1-4)GlcNAc): -0.07 | glycan array binding signal (z-score) [8]: -0.735 | glycan array binding signal (z-score) (Gal(b1-4)GlcNAc(b1-2)Man): -0.801 | glycan array binding signal (z-score) [9]: 0.468 | glycan array binding signal (z-score) [10]: -0.218 | glycan array binding signal (z-score) [11]: 0.162 | glycan array binding signal (z-score) [12]: 2.24 | glycan array binding signal (z-score) [13]: 0.712 | glycan array binding signal (z-score) [14]: -0.076 | glycan array binding signal (z-score) [15]: 0.415 | glycan array binding signal (z-score) [16]: 0.244 | glycan array binding signal (z-score) [17]: 1.04 | glycan array binding signal (z-score) [18]: -0.653 | glycan array binding signal (z-score) [19]: -0.454 | glycan array binding signal (z-score) [20]: 0.818 | glycan array binding signal (z-score) [21]: 0.04 | glycan array binding signal (z-score) [22]: 1.9 | glycan array binding signal (z-score) [23]: -0.615 | glycan array binding signal (z-score) [24]: 1.4 | glycan array binding signal (z-score) [25]: 0.533 | glycan array binding signal (z-score) [26]: 3.23 | glycan array binding signal (z-score) [27]: 0.291 | glycan array binding signal (z-score) [28]: 3.37 | glycan array binding signal (z-score) [29]: -0.673 | glycan array binding signal (z-score) [30]: 0.219 | glycan array binding signal (z-score) [31]: 0.493 | glycan array binding signal (z-score) [32]: 0.471 | glycan array binding signal (z-score) [33]: 2.85
